## Primary screen of a compound library

Amino acid sequences for entries named in this document (tags omitted). Residues count along the entry.
UniProt A4I591, 1-473: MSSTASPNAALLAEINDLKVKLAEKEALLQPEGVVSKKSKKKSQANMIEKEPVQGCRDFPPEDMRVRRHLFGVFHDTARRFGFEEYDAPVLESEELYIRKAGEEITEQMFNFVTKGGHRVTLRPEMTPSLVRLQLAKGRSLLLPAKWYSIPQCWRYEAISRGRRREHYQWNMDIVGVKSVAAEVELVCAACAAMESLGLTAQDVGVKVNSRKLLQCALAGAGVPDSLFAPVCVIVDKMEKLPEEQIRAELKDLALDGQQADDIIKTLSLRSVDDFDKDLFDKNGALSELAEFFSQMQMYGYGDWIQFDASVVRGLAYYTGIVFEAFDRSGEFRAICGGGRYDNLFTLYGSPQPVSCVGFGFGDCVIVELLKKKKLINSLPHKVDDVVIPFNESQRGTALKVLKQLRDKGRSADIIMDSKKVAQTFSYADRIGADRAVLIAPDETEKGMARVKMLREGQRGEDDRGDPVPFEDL
UniProt I6X8D2, whole entry: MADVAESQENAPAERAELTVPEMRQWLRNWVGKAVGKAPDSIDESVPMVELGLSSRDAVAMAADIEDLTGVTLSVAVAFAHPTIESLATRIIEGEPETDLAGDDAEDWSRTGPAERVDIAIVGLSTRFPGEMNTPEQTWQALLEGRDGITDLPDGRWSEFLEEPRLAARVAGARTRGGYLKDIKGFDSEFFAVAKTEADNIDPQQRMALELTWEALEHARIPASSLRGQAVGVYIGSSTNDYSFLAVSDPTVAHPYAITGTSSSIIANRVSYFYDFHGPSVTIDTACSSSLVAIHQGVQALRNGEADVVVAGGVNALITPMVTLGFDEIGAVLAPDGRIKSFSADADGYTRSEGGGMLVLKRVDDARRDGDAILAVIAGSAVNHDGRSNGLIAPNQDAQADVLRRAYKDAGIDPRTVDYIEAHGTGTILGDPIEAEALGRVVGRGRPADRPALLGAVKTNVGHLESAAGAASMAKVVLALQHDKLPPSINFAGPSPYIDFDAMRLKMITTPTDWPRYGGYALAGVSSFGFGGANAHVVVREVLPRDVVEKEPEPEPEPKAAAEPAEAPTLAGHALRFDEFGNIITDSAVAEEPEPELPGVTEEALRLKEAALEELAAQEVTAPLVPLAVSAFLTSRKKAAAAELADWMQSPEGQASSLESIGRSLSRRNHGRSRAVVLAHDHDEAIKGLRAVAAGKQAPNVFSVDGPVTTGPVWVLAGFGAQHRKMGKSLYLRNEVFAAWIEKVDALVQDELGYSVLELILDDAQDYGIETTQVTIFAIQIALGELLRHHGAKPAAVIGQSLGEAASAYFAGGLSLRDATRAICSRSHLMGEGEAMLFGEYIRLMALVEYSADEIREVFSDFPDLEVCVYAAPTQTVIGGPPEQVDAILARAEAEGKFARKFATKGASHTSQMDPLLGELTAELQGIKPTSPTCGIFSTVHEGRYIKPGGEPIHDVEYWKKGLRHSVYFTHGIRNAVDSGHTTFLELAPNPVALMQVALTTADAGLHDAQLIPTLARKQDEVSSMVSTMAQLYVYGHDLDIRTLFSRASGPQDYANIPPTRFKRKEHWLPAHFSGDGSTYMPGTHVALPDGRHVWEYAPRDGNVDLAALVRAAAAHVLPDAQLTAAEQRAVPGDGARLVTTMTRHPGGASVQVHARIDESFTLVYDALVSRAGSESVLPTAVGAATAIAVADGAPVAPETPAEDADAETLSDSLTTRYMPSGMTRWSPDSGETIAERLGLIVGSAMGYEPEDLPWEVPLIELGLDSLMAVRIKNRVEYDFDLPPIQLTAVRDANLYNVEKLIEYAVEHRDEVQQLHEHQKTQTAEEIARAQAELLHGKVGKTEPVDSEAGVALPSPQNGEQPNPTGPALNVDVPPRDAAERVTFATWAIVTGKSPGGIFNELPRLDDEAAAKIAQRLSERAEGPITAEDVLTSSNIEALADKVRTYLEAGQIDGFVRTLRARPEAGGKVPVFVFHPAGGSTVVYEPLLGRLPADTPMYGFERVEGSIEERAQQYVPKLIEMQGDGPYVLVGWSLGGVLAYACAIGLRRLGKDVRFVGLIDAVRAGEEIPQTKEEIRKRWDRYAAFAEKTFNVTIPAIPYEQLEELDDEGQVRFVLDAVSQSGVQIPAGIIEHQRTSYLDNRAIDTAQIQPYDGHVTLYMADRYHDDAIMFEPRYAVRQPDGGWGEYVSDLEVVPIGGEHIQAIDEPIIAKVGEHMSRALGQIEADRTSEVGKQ
UniProt P9WFT3, whole entry: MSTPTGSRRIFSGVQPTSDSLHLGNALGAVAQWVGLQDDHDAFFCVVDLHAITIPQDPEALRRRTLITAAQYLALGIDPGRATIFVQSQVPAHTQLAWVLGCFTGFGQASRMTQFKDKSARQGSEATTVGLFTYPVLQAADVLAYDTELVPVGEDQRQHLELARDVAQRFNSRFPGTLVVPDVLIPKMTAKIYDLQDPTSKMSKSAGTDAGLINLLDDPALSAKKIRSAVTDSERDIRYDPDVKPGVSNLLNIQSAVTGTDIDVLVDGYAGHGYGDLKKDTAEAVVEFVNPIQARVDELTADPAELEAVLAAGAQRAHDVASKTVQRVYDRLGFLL
UniProt Q4DA54, 1-478: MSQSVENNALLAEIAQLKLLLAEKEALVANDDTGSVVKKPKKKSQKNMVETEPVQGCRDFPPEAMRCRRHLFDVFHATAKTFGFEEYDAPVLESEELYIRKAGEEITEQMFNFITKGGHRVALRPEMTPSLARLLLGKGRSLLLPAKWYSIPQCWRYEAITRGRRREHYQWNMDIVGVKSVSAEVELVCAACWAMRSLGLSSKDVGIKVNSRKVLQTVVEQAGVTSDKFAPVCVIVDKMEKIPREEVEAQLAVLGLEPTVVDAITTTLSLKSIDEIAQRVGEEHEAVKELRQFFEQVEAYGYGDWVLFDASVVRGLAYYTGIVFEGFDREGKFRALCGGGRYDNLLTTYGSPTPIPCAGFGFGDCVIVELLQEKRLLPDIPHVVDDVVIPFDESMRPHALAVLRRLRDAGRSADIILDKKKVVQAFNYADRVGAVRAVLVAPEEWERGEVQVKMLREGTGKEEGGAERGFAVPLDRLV

Data taken from ChEMBL document CHEMBL3988442, “University of Dundee, Small-Polar-MMV Screening Library” (2021).

Results are given as percent effect.
The record does not define 0% and 100%; most values in the screen are far below 50% and negative numbers occur (in some assays of this library far below -100).
The compounds are a random part of those screened.

A: 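Enzyme assay of histidyl-tRNA synthetase; the read-out is not stated. Target: Histidine-tRNA ligase, Leishmania infantum (UniProt A4I591). Concentration: 30 µM. Direction is inferred from retests: higher values go with stronger inhibition. The assay is labelled LdHisRS but filed under L. infantum. About 69,000 compounds were tested under these conditions; 0.6% (about 410) showed 50% or more at least once.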
B: 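Enzyme assay of the thioesterase domain of polyketide synthase 13; the read-out is not stated. Target: Polyketide synthase Pks13, Mycobacterium tuberculosis (UniProt I6X8D2). Concentration: 30 µM. Higher reads as stronger inhibition (inferred from which compounds were picked for retests). Size under these conditions: about 67,000 compounds, about 300 of them at 50% or above in at least one test.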
C: 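Enzyme assay of tryptophanyl-tRNA synthetase; the read-out is not stated. Target: Tryptophan-tRNA ligase, Mycobacterium tuberculosis (UniProt P9WFT3). Tested at 10 µM. Higher most likely means stronger inhibition; the record gives no direction and few retests gave an IC50. About 65,000 compounds were tested under these conditions; 0.098% (about 64) showed 50% or more at least once.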
D: 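Histidine-tRNA ligase, Trypanosoma cruzi CL Brener (UniProt Q4DA54). Enzyme assay of histidyl-tRNA synthetase; the read-out is not stated. Concentration: 30 µM. Higher reads as stronger inhibition (inferred: compounds with an IC50 in retests scored well above the rest). Of about 69,000 compounds tested this way, about 31 (0.045%) reached 50% or more in at least one test.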

{"structure": "Cn1c(SCC2OCCc3ccccc32)n[nH]c1=O", "stereo": "stereo not drawn", "A": -0.8772, "B": 2.382, "C": -1.763, "D": 12.07}
{"structure": "O=C(CCc1ccc(Cl)s1)N1CCC(N2CCNC2=O)CC1", "A": 13.27, "B": -0.8817, "C": -0.627, "D": 9.621}
{"structure": "O=C(c1ccc(O)nc1)N1CCN(C(=O)c2ccc(F)cc2F)CC1", "A": 15.08, "C": -0.5228, "D": 12.94}
{"structure": "COc1ccc(Cl)cc1NC(=O)CNc1ccn(CC(N)=O)n1", "A": 14.91, "B": -11.14, "C": 11.1, "D": -1.724}
{"structure": "COCC(O)CN1CC(C)(C)CN(C(=O)CCc2ccccc2)CC1=O", "stereo": "stereo not drawn", "A": 6.122, "B": -1.258, "D": 5.618}
{"structure": "CN1CC(=O)N(C2CCNCC2)Cc2c(NC3CCC3)ncnc21", "A": 11.03, "B": -18.08, "C": -1.988, "D": 5.325}
{"structure": "Cc1cccnc1CN1CCN(C(=O)c2ccn(C(C)(C)C)c2)CC1", "A": -6.522, "B": 0.6985, "C": 0.8039, "D": -0.9901}
{"structure": "COc1ccc2c(CN3CCCN(Cc4ccncc4)CC3)n[nH]c2c1", "A": 35.16, "B": -6.759, "C": -3.311, "D": 6.627}
{"structure": "O=C(CCOCc1ccccc1)NS(=O)(=O)N1CCOc2ccccc21", "A": 14.61, "B": -16.56, "C": 3.803, "D": 10.88}
{"structure": "CN(C)C(=O)CN1CCc2ncnc(C3CC3)c2CC1", "A": 0.9009, "B": -20.08, "D": 6.63}
{"structure": "CCC[C@H]1CN(S(C)(=O)=O)C[C@@H]1NC(=O)CCOCC", "A": 8.065, "B": -14.36, "C": 2.703, "D": 8.772}
{"structure": "COc1cc(N2CCC3(CC2)CN(C)C(=O)CO3)ncn1", "A": -1.923, "B": -32.45, "D": 0.5587}
{"structure": "O=C(NCc1ccc(Cl)s1)NCc1nnc2n1CCCCC2", "A": 13.16, "B": 1.672, "C": -11.26, "D": 7.514}
{"structure": "CCCn1cc(NC(=O)c2ccc(N(C)CC)cc2)ccc1=O", "A": 31.53, "B": 28.73, "C": -1.14, "D": 11.67}
{"structure": "CSCC(=O)N1C[C@H](c2ccc(C)o2)[C@@H](N)C1", "A": 4.286, "B": -7.636, "C": 1.625, "D": 7.447}
{"structure": "COc1c(C2CCCN2CC(=O)Nc2cc(C)no2)c(C)nn1C", "stereo": "stereo not drawn", "A": 12.31, "B": -8.02, "C": -1.263, "D": 5.747}
{"structure": "CCOc1nn(CC)cc1-c1nnc(SCc2cccnc2)n1CC", "A": 21.51, "B": -19.78, "C": 3.917, "D": 11.92}
{"structure": "CNc1ncccc1C(=O)N1CCC2(CCN(C)C2)CC1", "A": 18.31, "B": -37.52, "C": 1.715, "D": 4.459}
{"structure": "O=C(c1ccoc1)N1CC[C@@H]2O[C@@H](COCC3CCOCC3)CC[C@@H]21", "A": 15.6, "B": -4.21, "C": -26.2, "D": 7.563}
{"structure": "Cc1cccc(N2CCC3(CCCN3Cc3c(C)nn(C)c3C)CC2)n1", "A": -5.479, "B": -22.13, "C": -4.015, "D": 9.189}
{"structure": "COc1ccc(CNc2nc(C3CC3)no2)cc1OC", "A": 3.333, "B": -33.44, "C": -5.857, "D": -1.136}
{"structure": "Cc1ccc(-c2nc(CSCCC(=O)NC(N)=O)co2)c(C)c1", "A": 20.41, "B": 0.9192, "C": 3.818, "D": 6}
{"structure": "CCC1=N[C@@]2(CC[C@@H]3CN(C(=O)Nc4ccccc4)C[C@@H]32)C(=O)N1CC", "A": 9.877, "B": 4.851, "C": 1.285, "D": 1.84}
{"structure": "OCc1cccc(OCc2ccon2)c1", "A": 5.31, "B": -15.63, "C": 1.497, "D": -5.357}
{"structure": "Cc1nc(-c2ccccc2C(=O)O)cc(C2CCN(C(C)C)C2)n1", "stereo": "stereo not drawn", "A": 0, "D": -1.13}